Where a chain is given by its changes, count along the chain named. No constants are given. Whether binding was seen depends on the method and setting.

B1: MAb 301 (antibody, human IgG1, V domains shown)
VH: EVQLQQSGPELVKPGASVKMSCKASGYTFTDYYMDWVKQSHGESFEWIGRVNPYHGGATYNQKFKGKATLTVDKSSRTAYMELNSLTYEDSAVYYCAREENSYDGYYGMDYWGQGTTVTVSS
VL: DIVLTQSPSSLSVSAGEKVTMDCKSSQSLFNSGNQKNYLAWYHQKPGQPPKLLIYGASTRESGVPDRFTGSGSGTDFTLTISSVQAEDLAVYYCQNDHTYPYTFGGGTKLEIK
B2: MAb 657 (antibody, human IgG1, V domains shown)
VH: QVQLVQSGAEVKKPGSSVKVSCKASGYTFTDYYMDWVRQAPGQGLEWIGRVNPYHGGATYNQKFKGKATITVDKSTSTAYMELSSLRSEDTAVYYCAREENSYDGYYGMDYWGQGTLVTVSS
VL: DIVMTQSPLSLPVSPGEPATINCKSSQSLFNSGNQKNYLAWYLQKPGQPPKLLIYGASTRESGVPDRFSGSGSGTDFTLTISSLQAEDVAVYYCQNDHTYPYTFGQGTKLEIK
B3: MAb 1807 (antibody, human IgG4, V domains shown)
VH: B2 VH
VL: B2 VL
B4: MAb 1656 (antibody, human IgG1, V domains shown)
VH: B2 VH with I48M, K67R, A68V, V72A
VL: B2 VL
B5: MAb 1808 (antibody, human IgG4, V domains shown)
VH: B2 VH with I48M, K67R, A68V, V72A
VL: B2 VL

One assay deals with hemoglobin. The assay is described as follows: ELISA.
In the case of B1, the binding entry was “no binding”.
Regarding B2, the binding result was “no binding”.
On the same count and under the same terms, the result for B3 reads “no binding”.
As to B4, the binding entry is given as “no binding”.
B5: the binding result is “no binding”.

A further assay addresses insulin. Briefly: ELISA. (In general: An ELISA detects its analyte on a solid surface through an enzyme-linked reagent.)
For B1, the binding result is listed as “no binding”.
On to B2, for which the binding result is “no binding”.
Same read-out and setting: the result for B3 reads “no binding”.
Turning to B4, the binding entry is “no binding”.
On to B5, for which the binding entry is recorded as “no binding”.
